For some assays here: For at least one compound, name, drawing or mass did not settle the structure. Some entries share one result that the patent states for a list of compounds.
How the values were obtained:
[1] = Pharmacokinetic profiles, plasma; format: in vivo, female Crl: CD1 mice
Procedure: Compounds 1 and 2 were separately dissolved in ethanol (5%), Polysorbate 80 (15%), PEG 400 (5%) and dextrose (5%) at a final concentration of 6 mg/ml (for all parenteral administration routes). For oral […], Compound 1 was solubilized in Cremophor® EL/Ethanol (50%:50%) at a final concentration of 6 mg/ml. Prior to dosing, animals (female Crl: CD1 mice; 6 weeks of age, 22-24 g) were weighed, randomly selected and assigned to the different treatment groups. Compound 1 was administered by the intravenous (iv), subcutaneous (sc), intraperitoneal (ip), or oral (po) route to the assigned animals. Compound 2 was administered by the intravenous (iv), or intraperitoneal (ip) route to the assigned animals. The dosing volume of Compounds 1 and 2 was 5 mL per kg body weight. Animals were anesthetized with 5% isoflurane prior to bleeding. Blood was collected into microtainer tubes containing the anticoagulant K2EDTA by cardiac puncture from each of 4 animals per bleeding timepoint (2 min, 5 min, 15 min, 30 min, 1 h, 2 h, 4 h and 8 h). Following collection, the samples were centrifuged and the plasma obtained from each sample was recovered and stored frozen (at approximately −80° C.) pending analysis. At the 5 min and 30 min time points, the following organs were harvested from each animal: brain, lungs, skeletal muscle, fat tissue, kidneys, spleen, thymus and liver. Tissues were frozen (at approximately −80° C.) pending analysis. Samples were analysed by LC/MS/MS.
Plasma values of Compounds 1 and 2 falling below the limit of quantitation (LOQ) were set to zero.
The following pharmacokinetic parameters were calculated: area under the plasma concentration versus time curve from time zero to the last measurable concentration time point (AUC0-t), area under the plasma concentration versus time curve extrapolated to infinity (AUCinf), maximum observed plasma concentration (Cmax), time of maximum plasma concentration (tmax), apparent first-order terminal elimination rate constant (kel), apparent first-order terminal elimination half-life will be calculated as 0.693/kel (t1/2). The systemic clearance (CL) of Compound 1 after intravenous administration was calculated using Dose/AUCinf. Pharmacokinetic parameters were calculated using Kinetica™ 4.1.1 (InnaPhase Corporation, Philadelphia, Pa.).

[2] = tested on: rat glioblastoma tumor (C6) xenografts; assay: In vivo antitumor efficacy of Compound 2, C6 xenografts; set-up: species or system female swiss nude mice; conditions: intravenous administration, 75 mg/kg (qd5/2/qd5), FIG. 4

| SMILES | time plasma concentration maintained at therapeutically relevant levels ([1]; intraperitoneal administration) | time plasma concentration maintained at therapeutically relevant levels ([1]; subcutaneous administration) | time plasma concentration maintained at therapeutically relevant levels ([1]; intravenous administration) | Antitumor efficacy [2] |
| --- | --- | --- | --- | --- |
| CC(C)=CCC/C(C)=C/CC/C(C)=C/CN1C(=O)c2cccc(O)c2Nc2c(O)cc(O)cc21 [Compound 1, 10-farnesyl-4,6,8-trihydroxy-5,10-dihydrodibenzo[b,e][1,4]diazepin-11-one] | over 8 hours | over 8 hours |  |  |
| CC(C)=CCC/C(C)=C/CC/C(C)=C/CN1C(=O)c2cccc(O)c2N(C)c2c(O)cc(O)cc21 [Compound 2, 10-farnesyl-4,6,8-trihydroxy-5-methyl-5,10-dihydro-dibenzo[b,e][1,4]diazepin-11-one] | over 8 hours |  | over 8 hours | Significant efficacy |

From patent publication US20090029972A1, “Dibenzodiazepinone Analogues, Processes for Their Production and Their Use as Pharmaceuticals” (Ecopia BioSciences Inc, priority 2004, published 2009)
